# Measurements published in publication PMC3146701.
# Target: T1, Frizzled-6 (Fz-6) (mouse (endogenous in Tep1)) (UniProt Q61089)
# T1 sequence: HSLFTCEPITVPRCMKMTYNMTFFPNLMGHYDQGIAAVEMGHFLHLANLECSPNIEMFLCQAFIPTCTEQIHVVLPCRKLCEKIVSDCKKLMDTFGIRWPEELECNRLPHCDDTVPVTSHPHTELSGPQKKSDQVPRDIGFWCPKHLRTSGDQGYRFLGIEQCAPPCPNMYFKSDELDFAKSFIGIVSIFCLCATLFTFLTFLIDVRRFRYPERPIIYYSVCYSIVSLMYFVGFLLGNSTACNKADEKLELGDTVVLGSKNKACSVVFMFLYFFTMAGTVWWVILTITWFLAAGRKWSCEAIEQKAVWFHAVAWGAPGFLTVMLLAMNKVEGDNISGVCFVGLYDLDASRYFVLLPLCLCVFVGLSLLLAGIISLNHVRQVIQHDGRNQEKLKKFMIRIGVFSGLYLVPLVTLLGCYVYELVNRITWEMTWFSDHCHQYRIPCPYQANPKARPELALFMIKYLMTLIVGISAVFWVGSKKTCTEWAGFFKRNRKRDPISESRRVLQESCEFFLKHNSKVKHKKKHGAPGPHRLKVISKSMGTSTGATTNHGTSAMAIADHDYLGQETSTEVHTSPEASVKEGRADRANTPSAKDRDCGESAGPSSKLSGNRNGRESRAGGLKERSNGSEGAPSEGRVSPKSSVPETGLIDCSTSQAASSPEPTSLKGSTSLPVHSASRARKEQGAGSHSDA
# Assay: co-IP; Tep1 cells treated with control or Wnt-4 supernatants; cell lysates immunoprecipitated with anti-Fz-4 or anti-Fz-6 antibodies and protein G resin in the presence of protease and phosphatase inhibitors; blots probed for PKCδ and Dvl
substance,measurement,value
Dishevelled (Dvl) (mouse (endogenous in Tep1)),binding,binds

# Results are given in words; binding and its absence hold for the method and conditions named. Binding seen in cells or lysates may run through a third protein. Binding calls can cover weak binding; strength is not graded here.
